Results are given in words; binding and its absence hold for the method and conditions named. Binding seen in cells or lysates may run through a third protein. A result given as binding can be weak or reduced; the word gives no strength.
Target: T1, vascular endothelial cadherin (mouse (endogenous in pMECs)) (UniProt P55284)
T1 sequence: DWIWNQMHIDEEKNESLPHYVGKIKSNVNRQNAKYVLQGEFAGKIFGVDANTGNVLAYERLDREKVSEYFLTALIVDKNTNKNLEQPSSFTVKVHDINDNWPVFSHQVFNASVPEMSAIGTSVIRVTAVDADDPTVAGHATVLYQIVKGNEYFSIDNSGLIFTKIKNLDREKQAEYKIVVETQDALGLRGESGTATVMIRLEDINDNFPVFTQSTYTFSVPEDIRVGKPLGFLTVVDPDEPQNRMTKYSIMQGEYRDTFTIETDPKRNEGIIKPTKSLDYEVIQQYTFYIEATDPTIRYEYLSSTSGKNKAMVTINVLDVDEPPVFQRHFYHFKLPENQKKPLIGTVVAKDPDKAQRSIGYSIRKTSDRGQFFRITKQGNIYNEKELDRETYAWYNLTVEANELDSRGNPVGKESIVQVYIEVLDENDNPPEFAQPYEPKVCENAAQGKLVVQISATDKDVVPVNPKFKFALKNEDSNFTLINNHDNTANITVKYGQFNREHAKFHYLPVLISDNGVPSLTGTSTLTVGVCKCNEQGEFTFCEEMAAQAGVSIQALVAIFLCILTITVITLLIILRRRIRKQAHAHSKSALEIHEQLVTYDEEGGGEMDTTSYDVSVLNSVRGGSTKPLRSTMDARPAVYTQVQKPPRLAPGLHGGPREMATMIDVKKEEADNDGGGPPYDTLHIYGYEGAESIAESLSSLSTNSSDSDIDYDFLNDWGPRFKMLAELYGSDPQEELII
Assay: co-IP; VE-Cadherin immunoprecipitates from lysates of F/F and BRAFΔ/Δ pMEC monolayers; Protein G Sepharose with antibody, 4 °C overnight; 25 mM HEPES, 150 mM NaCl, 1 mM EGTA, 0.5% NP-40, 10% glycerol; immunoblot

binding: binds
Substance: α catenin (mouse (endogenous in pMECs))
